According to PubChem BioAssay AID743255 (National Center for Advancing Translational Sciences (NCATS), 2014):
In all, about 390,000 compounds went through this assay and about 910 (0.23%) were called active. This list was built around the results that the source calls inconclusive (neither active nor inactive); the mix of calls is not that of the screen. Calls come from the whole dose curve; as a rule, active = well fitted inhibition curve with a large enough effect; inconclusive = small, poorly fitted or top-dose-only effect; inactive = no such curve, though single readings can be large or run the other way. Potencies of inconclusive entries are doubtful fits and often do not repeat.

The chains behind the UniProt entries cited, without tags or fusion partners. Where a name states a change or a piece, a line headed by the entry shows the natural chain unless it says otherwise.
UniProt O94782: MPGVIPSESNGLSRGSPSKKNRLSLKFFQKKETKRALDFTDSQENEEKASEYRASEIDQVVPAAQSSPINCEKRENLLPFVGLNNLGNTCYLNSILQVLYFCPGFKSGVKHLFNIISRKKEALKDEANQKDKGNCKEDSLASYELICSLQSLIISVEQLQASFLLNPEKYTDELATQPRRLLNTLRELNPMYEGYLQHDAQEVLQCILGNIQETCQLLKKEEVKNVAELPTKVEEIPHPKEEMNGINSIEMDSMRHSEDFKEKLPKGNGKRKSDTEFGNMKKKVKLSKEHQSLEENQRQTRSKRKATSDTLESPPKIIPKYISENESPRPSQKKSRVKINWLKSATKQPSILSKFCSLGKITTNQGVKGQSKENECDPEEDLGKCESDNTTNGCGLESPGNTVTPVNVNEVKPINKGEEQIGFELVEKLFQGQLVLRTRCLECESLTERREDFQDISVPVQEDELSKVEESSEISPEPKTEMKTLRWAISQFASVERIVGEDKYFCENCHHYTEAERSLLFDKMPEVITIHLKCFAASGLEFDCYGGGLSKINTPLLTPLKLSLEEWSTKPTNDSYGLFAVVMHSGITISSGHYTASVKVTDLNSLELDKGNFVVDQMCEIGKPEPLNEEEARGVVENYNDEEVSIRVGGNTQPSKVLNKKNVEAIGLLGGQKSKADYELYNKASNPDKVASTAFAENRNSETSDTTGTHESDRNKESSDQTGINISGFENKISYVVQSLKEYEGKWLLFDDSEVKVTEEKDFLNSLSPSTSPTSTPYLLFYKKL

What follows are compounds tested against Ubiquitin carboxyl-terminal hydrolase 1 (Homo sapiens) (UniProt O94782) (assay: Inhibitors of USP1/UAF1: Primary Screen). Conditions: recombinant USP1/UAF1, Ub-Rhodamine cleavage fluorescence; activity change, negative = inhibition: at 57.1 µM (top of the series).
From the text: Deubiquitinating enzymes (DUBs) are a class of enzymes that can cleave isopeptide bond formed between the C-terminal carboxylate of ubiquitin and a lysine side-chain amino group on the target protein. Among them, ubiquitin specific proteases (USPs) constitute the largest DUB family. Human USPs are emerging as promising targets for pharmacological intervention because of their connection to a number of human diseases, including prostate, colon and breast cancer (1, 2), pediatric acute lymphoblastic leukemia (3), and familial cylindromatosis (4). The advantage of inhibiting USPs lies in the potential specificity of therapeutic intervention that can lead to better efficacy and reduce nonspecific side effects. In a collaboration between the University of Delaware and the NIH Chemical Genomics Center, a high-throughput screen assay was developed to screen for USP1/UAF1 inhibitors. This miniaturized assay has a fluorescent read-out and is used to screen the NIH Molecular Libraries Small Molecule Repository (MLSMR) in order to identify a small molecule that inhibits USP1. NIH Chemical Genomics Center [NCGC] NIH Molecular Libraries Probe Centers Network [MLPCN] MLPCN Grant: DA030552 Assay Submitter (PI): Zhihao Zhuang, University of Delaware 1. Priolo, C., et al. (2006) The isopeptidase USP2a protects human prostate cancer from apoptosis. Cancer Res 66, 8625-8632 2. Popov, N., et al. (2007) The ubiquitin-specific protease USP28 is required for MYC stability. Nat Cell Biol 9, 765-774 3. De Pitta, C., et al. (2005) A leukemia-enriched cDNA microarray platform identifies new transcripts with relevance to the biology of pediatric acute lymphoblastic leukemia. Haematologica 90, 890-898 4. Kovalenko, A., et al. (2003) The tumour suppressor CYLD negatively regulates NF-kappaB signalling by deubiquitination. Nature 424, 801-805
3 microliters of reagents (buffer in columns 3 and 4 as negative control and 1nM USP1/UAF1 complex in columns 1, 2, and 5-48) are dispensed into Greiner black solid bottom 1536-well assay plates. Compounds are then transferred via Kalypsys pin tool equipped with 1536-pin array (10nl slotted pins, V&P Scientific, San Diego, CA). Following an incubation step of 15 min at room temperature, 1ul of Ub-Rho substrate (150nM final concentration) is added to initiate the reaction. The plates are immediately centrifuged at 1000 rpm for 15 seconds, and subsequently transferred to a ViewLux high-throughput CCD imager (PerkinElmer) wherein kinetic measurements of fluorescence are acquired using 480 nm excitation/540 nm emission filter set (6 reads every 60 seconds, see Table 1). All reagents are diluted in an assay buffer consisting of 50mM HEPES (pH 7.8), 0.5mM EDTA, 0.1 mg/ml BSA, 1mM TCEP, and 0.01% Tween-20.
% is set by controls: 0 for no effect and ±100 for the full control effect; potency is the fitted concentration of half-maximal effect.
Note: nearly all actives have a fitted effect of over 60% in size.

SMILES	Potency	activity change, negative = inhibition
CCCCn1c(O)c(/C=C/C=Nc2ccccc2)c(=O)[nH]c1=O	inconclusive: 35.5 µM [inhibitor, partial curve]	–
CC(C)(C)OC(=O)NCc1ccc(CNC(=O)c2nc[nH]c2C(=O)NCc2ccc(CNC(=O)OC(C)(C)C)cc2)cc1	inconclusive: 28.2 µM [inhibitor, single point]	–
c1cc2c(cc1NC1=NCCO1)CCCC2	–	inactive: -12.6%
CCCCCn1cc(C(=O)C(=O)N2CCOCC2)c2ccccc21	–	inactive: -23.8%
CC12C=CC(=O)C=C1CC(O)C1C2CCC2(C)C1CCC2(C)O (centres undefined)	inconclusive: 35.5 µM [inhibitor, partial curve]	–
O=c1[nH]c(=O)n(C2CCCCC2)c(O)c1C1=Nc2ccccc2SC(c2ccccc2)C1 (centres undefined)	inconclusive: 5.62 µM [inhibitor, partial curve]	–
Cc1cc(NC(=O)c2cc(-c3cccc(Cl)c3)on2)nn1Cc1ccc(Cl)cc1	inconclusive: 1.41 µM [inhibitor, full curve, poor fit]	–
COCCN1C(=O)NC(=O)/C(=C\c2ccc(Br)cc2)C1=O	–	inactive: -18.4%
CC(=NCC1CCCO1)c1c(O)n(-c2ccccc2C)c(=O)[nH]c1=O (centres undefined)	–	inactive: -10.6%
CN1C(=O)/C(=C/C=C/c2ccco2)C(=O)NC1=S	inconclusive: 39.8 µM [inhibitor, partial curve]	–
COc1ccc2ccc(O)c(CN3CC=C(c4ccccc4)CC3)c2c1	inconclusive: 44.7 µM [inhibitor, partial curve, poor fit]	–
C[C@H](CO)N1C[C@H](C)[C@@H](CN(C)S(=O)(=O)c2cccs2)Oc2ccc(NC(=O)Nc3ccc(C(F)(F)F)cc3)cc2C1=O	inconclusive: 0.251 µM [inhibitor, full curve, poor fit]	–
O=[N+]([O-])NC1=NCCN1Cc1ccc(Cl)nc1	–	inactive: -12.8%
COc1ccc(OC(=O)N(C)C[C@@H]2OCc3cnnn3CCCC(=O)N([C@@H](C)CO)C[C@@H]2C)cc1	inconclusive: 0.251 µM [inhibitor, full curve, poor fit]	–
Cc1ccccc1C(=O)NNC(=S)NC(=O)COc1ccccc1	inconclusive: 1 µM [inhibitor, full curve, poor fit]	–
O=C1NC(=O)C(=Cc2ccc(SC3CCCCC3)o2)C(=O)N1	inconclusive: 39.8 µM [inhibitor, partial curve]	–
C#CCOc1cc(C2C3=C(COC3=O)Nc3cc4c(cc32)OCO4)ccc1OC (centres undefined)	inconclusive: 44.7 µM [inhibitor, partial curve]	–
Cc1cc(C)cc(Nc2nc3ccc(C)cc3n3cnnc23)c1	inconclusive: 7.08 µM [inhibitor, single point]	–
CCCNC(=O)c1c(N)n(CC2CCCO2)c2nc3ccccc3nc12 (centres undefined)	inconclusive: 28.2 µM [inhibitor, single point]	–
COc1ccc(C[C@@H]2c3cc(O)c(OC)cc3CCN2C)cc1O	–	inactive: -26.5%
COC1C(O)C(C)OC(OC2C(Oc3cccc4c(O)c5c(=O)oc6ccc(C)c7c(=O)oc(c34)c5c67)OC(C)C(O)C2O)C1O (centres undefined)	–	inactive: -21.5%
Cc1cccc(N2CCN(CCc3ccccc3)CC2)c1C	–	inactive: -3.96%

Exported as comma-separated lines: 5 of the compounds above
SMILES,Potency,"activity change, negative = inhibition"
Cc1cc(C)cc(Nc2nc3ccc(C)cc3n3cnnc23)c1,"inconclusive: 7.08 µM [inhibitor, single point]",–
CCCNC(=O)c1c(N)n(CC2CCCO2)c2nc3ccccc3nc12 (centres undefined),"inconclusive: 28.2 µM [inhibitor, single point]",–
COc1ccc(C[C@@H]2c3cc(O)c(OC)cc3CCN2C)cc1O,–,inactive: -26.5%
COC1C(O)C(C)OC(OC2C(Oc3cccc4c(O)c5c(=O)oc6ccc(C)c7c(=O)oc(c34)c5c67)OC(C)C(O)C2O)C1O (centres undefined),–,inactive: -21.5%
Cc1cccc(N2CCN(CCc3ccccc3)CC2)c1C,–,inactive: -3.96%

The list continues.

SMILES	Potency	activity change, negative = inhibition
O=C(CN1C(=O)S/C(=C\C=C\c2ccccc2)C1=O)Nc1ccccc1C(=O)O	inconclusive: 50.1 µM [inhibitor, partial curve, poor fit]	–
COc1cccc2c1cc([N+](=O)[O-])c1c(C(=O)O)cc3c(c12)OCO3	–	inactive: -10.7%
COc1ccc(N2C(=O)/C(=C/c3ccc(OC)c(OC)c3)C(=O)NC2=S)cc1	–	inactive: -9.48%
CC12CN3CC(C)(CN(C1)C3c1cccnc1)C2=O (centres undefined)	–	inactive: -12.9%
N#Cc1ccc(C(=O)N2CCN(c3nc4ccc(F)cc4s3)CC2)cc1	inconclusive: 0.708 µM [inhibitor, partial curve, poor fit]	–
COC(COC(N)=O)C1=C(N2CC2)C(=O)C(C)=C(N2CC2)C1=O (centres undefined)	inconclusive: 25.1 µM [inhibitor, partial curve]	–
CS(=O)(=O)c1ccc(C2=C(CNC(=O)c3nccs3)[C@H]3CC[C@@H](C2)N3CCOc2ccccc2)cc1	–	inactive: -9.73%
CCC1=Nc2cc(C(=O)N3CCC4(CC3)OCCO4)ccc2Sc2ccccc21	inconclusive: 35.5 µM [inhibitor, partial curve, poor fit]	–
CCCN1CC[C@@H]2c3cc(O)ccc3CC[C@@H]21	inconclusive: 0.0891 µM [inhibitor, full curve]	–
Cc1ccc(C(=O)Nc2ccc(S(=O)(=O)N3CCC(c4nc5ccccc5s4)CC3)cc2)cc1	inconclusive: 1.26 µM [inhibitor, full curve]	–
O=[N+]([O-])c1ccc(NCc2ccc(Cl)cc2)c2ccncc12	inconclusive: 50.1 µM [inhibitor, partial curve, poor fit]	–
CC(C)c1ccc(NC(=O)c2ccc3c(c2)CCN3S(=O)(=O)c2ccccc2)cc1	inconclusive: 25.1 µM [inhibitor, partial curve, poor fit]	–
O=C1NC(=O)N(Cc2ccc(F)cc2)C(=O)/C1=C\C=C\c1ccco1	–	inactive: -18.6%
CC1CCCCN1C(=O)Cn1cc(C=C2C(=O)N(C)C(=O)N(C)C2=O)c2ccccc21 (centres undefined)	inconclusive: 28.2 µM [inhibitor, single point]	–
N#CC(C#N)=NNc1ccc([N+](=O)[O-])cc1	inconclusive: 44.7 µM [inhibitor, partial curve]	–
N/C(=N\N=C/c1ccc(-c2ccc(O)c(C(=O)O)c2)o1)N[N+](=O)[O-]	–	inactive: -18.1%
COc1ccc(C(=O)C2CCCN(C3CSCCSC3)C2)c(C)c1 (centres undefined)	inconclusive: 0.282 µM [inhibitor, full curve, poor fit]	–
O=C1NC(=O)N(c2ccc(Br)cc2)C(=O)/C1=C/c1ccsc1	–	inactive: -16.1%
O=c1[nH]c(=S)n(-c2ccc(Cl)cc2)c(O)c1C=Nc1ccc(N2CCOCC2)cc1	inconclusive: 2.24 µM [inhibitor, full curve]	–
Cc1cc(C)c(Cn2c3ccccc3c3cnn(CC(=O)NCc4ccc(Cl)cc4)c(=O)c32)c(C)c1	inconclusive: 25.1 µM [inhibitor, partial curve, poor fit]	–
C=CCN1CC[C@]23c4c5ccc(O)c4OC2[C@H](O)CC[C@@]3(O)[C@H]1C5 (some centres undefined)	inconclusive: 50.1 µM [inhibitor, partial curve, poor fit]	–
CN(C)CCn1cnc2ccccc21	inconclusive: 28.2 µM [inhibitor, partial curve]	–

SMILES	Potency	activity change, negative = inhibition
CCOC(=O)[C@]12Cc3cc(OC)c(OC)cc3[C@H]1N(Cc1ccccc1)C(=O)c1ccccc12	inconclusive: 70.8 µM [inhibitor, partial curve, poor fit]	–
O=c1oc2ccccc2c(O)c1C(c1ccc([N+](=O)[O-])cc1)c1c(O)c2ccccc2oc1=O	inconclusive: 28.2 µM [inhibitor, single point]	–
CCC12CN3CC(CC)(CN(C1)C3c1ccccn1)C2=O (centres undefined)	inconclusive: 7.08 µM [inhibitor, partial curve, poor fit]	–
CC(C)Sc1nnc([C@@H](N)Cc2c[nH]c3ccccc23)o1	–	inactive: -19.9%
Nc1ccc2c3c(cccc13)CC2	inconclusive: 28.2 µM [inhibitor, partial curve]	–
CCOC(=O)c1c(-n2c(C)cc(C=C3C(=O)NC(=O)NC3=O)c2C)sc2c1CCCC2	–	inactive: -8.47%
Cc1cccc(N2C(=O)NC(=O)/C(=C\c3cc(C)n(-c4sc5c(c4C#N)CCCC5)c3C)C2=O)c1C	inconclusive: 35.5 µM [inhibitor, partial curve, poor fit]	–
CN1C(=O)C(=Cc2ccc(N3CCOCC3)o2)C(=O)N(C)C1=O	inconclusive: 35.5 µM [inhibitor, partial curve, poor fit]	–
CCN1CCN(CC(c2ccccc2)c2ccccc2)CC1	–	inactive: -18.4%
Cc1cc(C)cc(-n2c(=O)[nH]c3ccccc3c2=O)c1	inconclusive: 10 µM [inhibitor, partial curve]	–
CC1CN(c2ccccn2)C(C)CN1C(=O)C(O)(c1ccccc1)c1ccccc1 (centres undefined)	inconclusive: 31.6 µM [inhibitor, single point]	–
O=C1NC(=O)N(c2ccc(F)cc2)C(=O)/C1=C/c1ccc2c(c1)CCCN2Cc1ccccc1	inconclusive: 44.7 µM [inhibitor, partial curve, poor fit]	–
O=C1C=C(N2CC2)c2ccccc2C1=O	active: 7.08 µM	–
COC(=O)C1=C(c2ccc(F)cc2OCc2ccccc2)C[C@@H]2CC[C@H]1N2C(=O)NCc1ccc(C(C)(C)C)cc1	inconclusive: 70.8 µM [inhibitor, partial curve, poor fit]	–
COc1ccc(/C=C/c2nc(-c3ccccc3O)n(-c3ccccc3)n2)cc1OC	inconclusive: 44.7 µM [inhibitor, partial curve, poor fit]	–
CCN1CCN(c2ccc(N)cc2)CC1	–	inactive: 8.16%
COc1ccc(N2C(=O)/C(=C/c3ccc(N(C)C)o3)C(=O)NC2=S)cc1	inconclusive: 7.94 µM [inhibitor, partial curve]	–
Cc1oc(-c2ccc(Cl)cc2)nc1CN1C(=O)CN=C(c2ccccc2)c2ccccc21	–	inactive: -4.1%
Cc1cccc(NC(=O)Cn2cc(C(=O)c3ccccc3)c3ccccc32)c1C	inconclusive: 6.31 µM [inhibitor, single point]	–
CCN(CC)C(=O)c1ccc2c(c1)C1C(Cl)C(Sc3ccccc3[N+](=O)[O-])CC1C(C(=O)O)N2 (centres undefined)	inconclusive: 11.2 µM [inhibitor, partial curve]	–
